Values from PubChem BioAssay AID504791 (Drosophila RNAi Screening Center, 2011).
Purpose: 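Genes of the fly required for silencing by miRNA, siRNA or endo-siRNA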 (primary screen). Cell system: Drosophila S2-derived reporter cells. Knock-down reagent: long dsRNA against Drosophila genes, about 150-250 ng dsRNA per well (siRNA assay); about 80-120 ng (miRNA assay). Duration: about 5 days (siRNA assay); about 4 days (miRNA assay). Challenge: copper sulfate induction of reporters: 25 µM (siRNA assay); 200 mM stated (miRNA assay), 1-2 days before reading. Measurement: 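Dual luciferase assay: Renilla to firefly signal ratio in each well, scaled to the mean ratio of its plate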. Units: stable assay Renilla, run 1 in luminescence; stable assay firefly, run 1 in luminescence. Hit rule: 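First-pass picks had plate-scaled ratios over 1.5 for the siRNA assay, over 1.6 for the miRNA assay, or under 0.6; two distinct dsRNAs had to score alike on retest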.
The screen tested about 23,000 reagents; shown is an unselected part of those with a known target gene and a result. In the full data, 199 (0.86%) got an active call. 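Plate-scaled ratios behind the calls are not deposited; printed light signals are raw; many rows marked increased or decreased are still called inactive.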 A number with no mark means an inactive call. A plus sign joins genes that one reagent is predicted to hit. Not stated in the record: the direction of the score.

Which result is listed for CG17777 [DRSC18137]?
stable assay Renilla, run 1: 5139; stable assay firefly, run 1: 3.06e5

For Ugt301D1 [DRSC02021], how do the results read?
stable assay Renilla, run 1: 8484; stable assay firefly, run 1: 5.11e5

For CG11134 [DRSC19384], what does the deposit list?
stable assay Renilla, run 1: 3627; stable assay firefly, run 1: 3.61e5

With dbo [DRSC11339], how do the results read?
stable assay Renilla, run 1: 8737; stable assay firefly, run 1: 3.40e5

How did the screen score CG17097 [DRSC02569]?
stable assay Renilla, run 1: 6667; stable assay firefly, run 1: 4.09e5

For Jhbp2 [DRSC12292], how do the results read?
stable assay Renilla, run 1: 6490; stable assay firefly, run 1: 4.96e5

What is on record for asRNA:CR31084 [DRSC21649]?
stable assay Renilla, run 1: 8406; stable assay firefly, run 1: 6.76e5

With Naa40 [DRSC16265], how do the results read?
stable assay Renilla, run 1: 6491; stable assay firefly, run 1: 3.73e5

How did the screen score CG5290 [DRSC10501]?
stable assay Renilla, run 1: 9855; stable assay firefly, run 1: 4.26e5

For Rab4 + CG42239 [DRSC05667], what does the deposit list?
stable assay Renilla, run 1: 6308; stable assay firefly, run 1: 4.21e5

What did the screen give for opm [DRSC20141]?
stable assay Renilla, run 1: 6947; stable assay firefly, run 1: 4.07e5

Which result is listed for opm [DRSC22135]?
stable assay Renilla, run 1: 9414; stable assay firefly, run 1: 6.04e5

With lncRNA:sphinx [DRSC17199], what was measured?
stable siRNA reporter change: reporter ratio lowered past the hit cutoff; stable assay Renilla, run 1: 4751; stable assay firefly, run 1: 4.87e5

With MED7 [DRSC16059], how do the results read?
stable assay Renilla, run 1: 4407; stable assay firefly, run 1: 2.74e5

With CG2975 [DRSC00556], what was measured?
stable assay Renilla, run 1: 7414; stable assay firefly, run 1: 4.46e5

With Cpr49Ab [DRSC05341], what was measured?
stable assay Renilla, run 1: 4950; stable assay firefly, run 1: 3.10e5

For CG7251 [DRSC03039], what does the deposit list?
stable assay Renilla, run 1: 29816; stable assay firefly, run 1: 2.40e5

For Cpr76Ba [DRSC11060], how do the results read?
stable assay Renilla, run 1: 8146; stable assay firefly, run 1: 4.68e5

Which result is listed for CG1835 [DRSC20560]?
stable assay Renilla, run 1: 5840; stable assay firefly, run 1: 3.59e5
